This data set can be described thus: 1,8-BTMAPAQ-based CO2 capture experiment (BaCO3 precipitation). The settings on record: for BaCO3 captured: 0.5 mmol quinone.

Each structure is given as a SMILES string.

For the compound `C[N+](C)(C)CCCOc1cccc2c1C(=O)c1c(OCCC[N+](C)(C)C)cccc1C2=O` [1,8-BTMAPAQ], the BaCO3 captured by setting is: (adduct kept in N2) 200 mg; (solution with captured CO2 vigorously stirred in air) 170 mg. Moreover, the “CO2 per quinone escaped during the air exposure” value (air exposure) is given as 0.3. Moreover, the “CO2 molecules captured per quinone” value (with air exposure) amounted to 1.7.

(Values after US20250144562A1, “ELECTROCHEMICAL CO2 CAPTURE WITH AIR STABLE REDOX SPECIES” (President and Fellows of Harvard College, priority 2022, published 2025).)
